For the experiment, the target named is HA-nsp3mut/4-V5 (unprocessed nsp3/4 polyprotein with inactive PLpro protease, C1592A) (SARS-CoV-2). The experiment in a line: affinity purification with mass spectrometry.

This passage reports binding results from publication PMC10688318.

No constants are given. Whether binding was seen depends on the method and setting. In cells and extracts the contact can be indirect. Here binding means that the protein was enriched with, or labelled near, the bait; the list need not be complete. No binding means not detected with the bait.

B1: HSD17B12 (enzyme, UniProt Q53GQ0 1-312)
chain: MESALPAAGFLYWVGAGTVAYLALRISYSLFTALRVWGVGNEAGVGPGLGEWAVVTGSTDGIGKSYAEELAKHGMKVVLISRSKDKLDQVSSEIKEKFKVETRTIAVDFASEDIYDKIKTGLAGLEIGILVNNVGMSYEYPEYFLDVPDLDNVIKKMININILSVCKMTQLVLPGMVERSKGAILNISSGSGMLPVPLLTIYSATKTFVDFFSQCLHEEYRSKGVFVQSVLPYFVATKLAKIRKPTLDKPSPETFVKSAIKTVGLQSRTNGYLIHALMGSIISNLPSWIYLKIVMNMNKSTRAHYLKKTKKN
As to B1, the binding entry is listed as “no binding”.
